Taken from: PubChem BioAssay AID1053208 (Peter MacCallum Cancer Centre, 2014)
Screen: 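Genes whose silencing cuts survival of bone tumour cells only with doxorubicin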 (primary screen). Cell system: mouse osteosarcoma cells, early-passage culture from an engineered mouse model of fibroblastic bone tumour. Knock-down reagent: siRNA pool against mouse genes, 40 nM. Time to read-out: about 120 h (48 h before drug, then 72 h with drug). Treatment: doxorubicin 100 nM for 72 h, roughly 30-40% inhibitory dose. Detection: 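Viability read as ATP luminescence after 72 h of 100 nM doxorubicin or none, duplicate wells averaged, scaled to non-targeting siRNA, then expressed as robust z-scores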. Direction: viability z-score with doxorubicin: higher = more viable cells under doxorubicin; viability z-score without drug: higher = more viable cells with knock-down alone. Call rule: 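a pool counts as active when its viability z-score with doxorubicin is -2 or below and its z-score without drug lies between -2 and 2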.
Shown is an unselected part of about 17,000 deposited reagents. Of all reagents, 788 (4.7%) are marked active. 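Calls rest on z-score classes alone; an extra cut-off of viability at most 70% of control was not applied to them.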 Entries without a mark were called inactive. Not all columns of the deposit are shown.

Smarce1 (SWI/SNF related BAF chromatin remodeling complex subunit E1) | combined z-score class: no change with or without drug; viability z-score with doxorubicin: -1.57; viability z-score without drug: -0.84
Borcs7 (BLOC-1 related complex subunit 7) | combined z-score class: no change with or without drug; viability z-score with doxorubicin: 1.35; viability z-score without drug: 1.52
Lrrc39 (leucine rich repeat containing 39) | combined z-score class: no change with or without drug; viability z-score with doxorubicin: -1.12; viability z-score without drug: 0.17
Pdzk1ip1 (PDZK1 interacting protein 1) | combined z-score class: no change with or without drug; viability z-score with doxorubicin: -1.69; viability z-score without drug: -0.51
Gykl1 (glycerol kinase-like 1) | combined z-score class: no change with or without drug; viability z-score with doxorubicin: 0.9; viability z-score without drug: 1.18
B4galnt1 (beta-1,4-N-acetyl-galactosaminyl transferase 1) | combined z-score class: no change with or without drug; viability z-score with doxorubicin: 0.11; viability z-score without drug: -0.67
Mipol1 (mirror-image polydactyly 1) | combined z-score class: no change with or without drug; viability z-score with doxorubicin: -0.22; viability z-score without drug: 0.17
Il34 (interleukin 34) | combined z-score class: no change with or without drug; viability z-score with doxorubicin: 1.12; viability z-score without drug: 0.84
P2rx7 (purinergic receptor P2X, ligand-gated ion channel, 7) | combined z-score class: no change with or without drug; viability z-score with doxorubicin: 0.56; viability z-score without drug: -0.17
Pa2g4 (proliferation-associated 2G4) | combined z-score class: no change with or without drug; viability z-score with doxorubicin: 0.22; viability z-score without drug: -0.51
Eloc (elongin C) | combined z-score class: no change with or without drug; viability z-score with doxorubicin: -1.57; viability z-score without drug: -0.17
Cep295nl (CEP295 N-terminal like) | combined z-score class: no change with or without drug; viability z-score with doxorubicin: 0.9; viability z-score without drug: 0.51
Slc30a6 | combined z-score class: high cell count with doxorubicin only; viability z-score with doxorubicin: 2.02; viability z-score without drug: 0.51
Kcnj4 (potassium inwardly-rectifying channel, subfamily J, member 4) | combined z-score class: no change with or without drug; viability z-score with doxorubicin: 0.34; viability z-score without drug: -0.17
Rcn3 (reticulocalbin 3, EF-hand calcium binding domain) | combined z-score class: no change with or without drug; viability z-score with doxorubicin: -1.91; viability z-score without drug: -0.51
Vtcn1 (V-set domain containing T cell activation inhibitor 1) | combined z-score class: no change with or without drug; viability z-score with doxorubicin: -0.67; viability z-score without drug: -0.51
Has3 (hyaluronan synthase 3) | combined z-score class: no change with or without drug; viability z-score with doxorubicin: 0.56; viability z-score without drug: 0.84

Next part; the last 3 above are carried over.
Rcn3 (reticulocalbin 3, EF-hand calcium binding domain) | combined z-score class: no change with or without drug; viability z-score with doxorubicin: -1.91; viability z-score without drug: -0.51
Vtcn1 (V-set domain containing T cell activation inhibitor 1) | combined z-score class: no change with or without drug; viability z-score with doxorubicin: -0.67; viability z-score without drug: -0.51
Has3 (hyaluronan synthase 3) | combined z-score class: no change with or without drug; viability z-score with doxorubicin: 0.56; viability z-score without drug: 0.84
Zfand1 (zinc finger, AN1-type domain 1) | combined z-score class: no change with or without drug; viability z-score with doxorubicin: -1.01; viability z-score without drug: -0.34
Erfe (erythroferrone) | combined z-score class: no change with or without drug; viability z-score with doxorubicin: -1.8; viability z-score without drug: -0.51
Tcf21 (transcription factor 21) | combined z-score class: no change with or without drug; viability z-score with doxorubicin: 1.57; viability z-score without drug: 1.35
Slc44a1 | combined z-score class: no change with or without drug; viability z-score with doxorubicin: 0.34; viability z-score without drug: 1.18
Ube2e3 (ubiquitin-conjugating enzyme E2E 3) | combined z-score class: no change with or without drug; viability z-score with doxorubicin: -0.45; viability z-score without drug: 0.17
Pak4 (p21 (RAC1) activated kinase 4) | combined z-score class: no change with or without drug; viability z-score with doxorubicin: 0.22; viability z-score without drug: -0.84
Pqbp1 (polyglutamine binding protein 1) | combined z-score class: no change with or without drug; viability z-score with doxorubicin: 0; viability z-score without drug: 0.84
Sox17 (SRY (sex determining region Y)-box 17) | combined z-score class: low cell count with doxorubicin only (active); viability z-score with doxorubicin: -2.81; viability z-score without drug: -1.01
4930565A21RIK | combined z-score class: no change with or without drug; viability z-score with doxorubicin: -1.01; viability z-score without drug: 0
Hapln2 (hyaluronan and proteoglycan link protein 2) | combined z-score class: no change with or without drug; viability z-score with doxorubicin: 0.67; viability z-score without drug: 1.18
Osr1 (odd-skipped related transcription factor 1) | combined z-score class: no change with or without drug; viability z-score with doxorubicin: 1.24; viability z-score without drug: 0.17
